The values that follow come from patent publication US5356934A, “Selected serotonin subtype receptor agonist to treat sleep apnea” (Eli Lilly and Company, priority 1993, dated 1994).

Protein sequences, listed by entry. Tags and fused reporters are not part of them. Residues count along the entry.
UniProt P35563, 24-483: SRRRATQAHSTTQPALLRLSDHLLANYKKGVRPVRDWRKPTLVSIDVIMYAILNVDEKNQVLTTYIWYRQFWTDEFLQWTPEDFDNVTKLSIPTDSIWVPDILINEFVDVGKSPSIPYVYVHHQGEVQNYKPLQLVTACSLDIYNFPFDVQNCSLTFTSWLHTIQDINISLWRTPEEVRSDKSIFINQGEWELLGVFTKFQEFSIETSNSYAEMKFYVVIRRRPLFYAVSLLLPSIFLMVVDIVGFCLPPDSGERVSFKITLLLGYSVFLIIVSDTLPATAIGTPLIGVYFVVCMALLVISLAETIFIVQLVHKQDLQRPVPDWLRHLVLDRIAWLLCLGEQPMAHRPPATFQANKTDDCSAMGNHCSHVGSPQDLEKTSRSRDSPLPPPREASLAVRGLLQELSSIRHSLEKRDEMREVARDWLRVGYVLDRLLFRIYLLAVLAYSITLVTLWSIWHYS
UniProt A0AAA9SBU1, 33-457: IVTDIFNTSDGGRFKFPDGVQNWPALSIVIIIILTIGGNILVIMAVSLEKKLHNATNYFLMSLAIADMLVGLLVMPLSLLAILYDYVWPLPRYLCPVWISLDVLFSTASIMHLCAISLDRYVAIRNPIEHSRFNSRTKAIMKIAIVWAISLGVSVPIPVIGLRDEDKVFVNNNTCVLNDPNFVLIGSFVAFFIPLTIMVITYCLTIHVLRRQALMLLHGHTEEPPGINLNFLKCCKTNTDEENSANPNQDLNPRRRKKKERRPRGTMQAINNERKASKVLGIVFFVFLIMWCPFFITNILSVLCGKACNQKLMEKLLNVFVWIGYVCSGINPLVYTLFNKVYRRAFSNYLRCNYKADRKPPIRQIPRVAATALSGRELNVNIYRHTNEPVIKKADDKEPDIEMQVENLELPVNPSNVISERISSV

The target in one assay is 5HT3 receptors (Rattus norvegicus, UniProt P35563). The assay is described as follows: biochemical. As to the method:
(§1) Binding was terminated by filtering samples under reduced pressure through glass fiber (GFB) filters. […] Radioactivity was measured with a liquid scintillation spectrometer.

The next assay deals with 5HT1C receptor (Bos taurus, UniProt A0AAA9SBU1). As to conditions: read-out: Inhibition of Radioligand Binding to 5HT Receptor 1C (IC50); bovine choroid plexus membranes; 2 nM 3H-mesulergine; mean of three experiments. On the procedure: as §1

As to `CNCC[C@@H](Oc1ccc(C(F)(F)F)cc1)c1ccccc1` [( -- R)-fluoxetine], the half-maximal inhibitory concentration (IC50) (in general, the point on the concentration scale where inhibition reaches its midpoint) at 5HT3 receptors was found to be 16 µM; on 5HT1C receptor, 0.19 µM.
